The list shows a part of the results. No stated cut-off is given here; in the data, active = 150% or more and inactive = the rest. Repeats are few or missing, and single values can be far off.

The assay has as its system Staphylococcus aureus JE2-lux inside RAW 264.7 macrophages. Nature of the assay: intracellular bacterial bioluminescence relative to DMSO vehicle; higher = higher intracellular bacterial metabolic activity. Particulars: 10 µM; treatment time 4 h; gentamicin 50 µg/ml. On the procedure:
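RAW 264.7 macrophages infected with bioluminescent MRSA JE2-lux (MOI 100) were dispensed into 384-well plates with 10 µM compound in the presence of 50 µg/ml gentamicin. After 4 h at 37 °C, bacterial bioluminescence (a proxy for intracellular bacterial metabolic activity) and host cell viability (CellTiter-Fluor) were read and normalised to 0.1% DMSO vehicle controls. Single-pass screen of the UNC CICBDD kinase-targeted library (>4,700 compounds).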
Regarding `COCCNC(=S)NCCNc1nc2cc(C)cc(C)c2cc1C#N`, the intracellular bacterial bioluminescence was inactive: 69.7%.
As for `O=C(CC(=O)N/N=C/c1ccc(O)cc1)N/N=C\c1ccc(O)cc1`, the figure is inactive: 116%; as for `CCOC(=O)C(C)Oc1cccc2c(=O)n(CC(=O)Nc3ccc(F)cc3F)ccc12` (configuration not stated), inactive: 88.7%; as for `Cc1ccc(-c2cc(=O)c3cc(NC(=O)c4ccccn4)ccc3o2)cc1`, inactive: 118%.
The result for `O=C(CSCc1ccccc1)Nc1ccc2c3c(cccc13)CC2` reads inactive: 49.8%; that for `Cc1cc(C)c2nc(NCCNC(=S)NCCc3ccccc3)c(C#N)cc2c1`, inactive: 72.8%.
As for `CCc1cc(=O)n(CC(=O)NCCC(C)C)c2c1c(C)nn2-c1ccc(C)cc1`, the figure is inactive: 65%; as for `CCOC(=O)c1nn(-c2ccc(F)cc2)c(=O)cc1NCc1cccnc1`, inactive: 115%; as for `Cn1c(N2CCN(C(=O)c3cc(-c4cccs4)n[nH]3)CC2)cc(=O)n(C)c1=O`, inactive: 91.4%.
Take `COc1ccc(CNC(=O)c2c(C)oc3c2C(=O)c2ccccc2C3=O)cc1`: the intracellular bacterial bioluminescence was inactive: 96.9%.
The result for `O=c1oc2ccccc2cc1-c1csc(-c2cc3cccc([N+](=O)[O-])c3oc2=O)n1` reads inactive: 130%.
Regarding `CCOC(=O)c1ccc(Oc2ncnc(N)c2[N+](=O)[O-])cc1`, the intracellular bacterial bioluminescence is inactive: 86.7%.
As for `Cc1c(N2CCN(C(=O)Cc3ccc(F)cc3)CC2)c(=O)n(CC(C)C)c(=O)n1-c1ccccc1`, the figure is inactive: 54.8%; as for `CCOC(=O)c1c(C)[nH]c(C(=O)N/N=C\c2ccccc2O)c1C`, inactive: 96%; as for `COC(=O)c1ccc(C(=O)/N=c2/sc3cc(F)ccc3n2C)cc1`, inactive: 106%.
The result for `CCc1ccc2nc(NCCNC(=O)COC)c(C#N)cc2c1` reads inactive: 99.1%; that for `CCC1CCCCN1S(=O)(=O)c1ccc(C(=O)Nc2nc3c(s2)Cc2ccccc2-3)cc1` (configuration not stated), inactive: 87.2%; that for `O=C(CSc1nnc2ncccn12)Nc1cccc2ccccc12`, inactive: 91.4%.
The result for `Cc1cc(-n2c(C)nc3ccccc3c2=O)ccc1NC(=O)c1cncc(Br)c1` reads inactive: 63%; that for `O=C(CC1CCCC1)NCCn1nc(-c2cccs2)oc1=O`, inactive: 92.4%.
`C#CCn1/c(=N/C(=O)c2ccco2)sc2cc(NC(C)=O)ccc21`: the intracellular bacterial bioluminescence was inactive: 85%.
As for `O=[N+]([O-])c1ccc(S(=O)(=O)N2CCN=C2SCc2cccnc2)cc1`, the figure is inactive: 32.4%; as for `COc1ccc(-c2cc3nc(C)cc(N4CCN(c5nc(C)cc(C)n5)CC4)n3n2)cc1OC`, inactive: 121%.
The result for `CCN(CC)S(=O)(=O)c1ccc(-c2nnc(SC(C)C(=O)OC)o2)cc1` (configuration not stated) reads inactive: 43.3%; that for `CCOC(=O)c1nn(-c2ccccc2)c(=O)cc1NCc1ccccn1`, inactive: 95.7%.
The result for `CC1(C)COc2ccc(NC(=O)COc3ccc(F)cc3)cc2NC1=O` reads inactive: 96.2%; that for `NC(=O)c1c(NC(=O)c2cc3c(ccc4ccccc43)oc2=O)sc2c1CCCCC2`, inactive: 111%.
`CCn1cc(NC(=O)Nc2ccccc2C(N)=O)c2ccccc21`: the intracellular bacterial bioluminescence is inactive: 98.7%.
The result for `COc1cc(C(C)=O)ccc1Oc1ncnc(N)c1[N+](=O)[O-]` reads inactive: 84.2%.
The result for `C=CCOc1ccccc1NC(=O)Cn1nc(C(F)(F)F)c2c1CCCC2` reads inactive: 103%; that for `Cc1c(C(=O)Nc2cccc(Cl)c2)sc2nc3n(c(=O)c12)N=C(c1ccc(O)c(O)c1)CS3`, inactive: 96.5%.
The result for `Cc1c(Cc2ccc3c(c2)OCO3)sc(NC(=O)c2nc3ccccc3s2)c1C#N` reads inactive: 99%.
On to `CCn1nc(C)c2ccnc(N3CCC(C(=O)Nc4ccc(Br)c(C)c4)CC3)c21`, for which the intracellular bacterial bioluminescence was inactive: 72.7%.
Turning to `Cc1ccccc1-n1nc2c(c1NC(=O)c1cc3ccccc3oc1=O)CSC2`, the intracellular bacterial bioluminescence was inactive: 78%.
As for `Cc1ccc(-c2c(C(F)(F)F)nn3c(O)cc(C)nc23)cc1`, the figure is inactive: 130%; as for `Fc1ccc(-n2c(SCc3cccnc3)nnc2-c2cccnc2)cc1`, inactive: 119%; as for `COc1cccc(/C=C2/SC(=S)N(CC(=O)Nc3ccccc3C(=O)O)C2=O)c1`, inactive: 87.6%.
As for `O=C(CSCc1ccccc1)Nc1ccccc1F`, the intracellular bacterial bioluminescence is inactive: 98.4%.
As for `CC(=O)c1cc(OC(=O)N2CCOCC2)ccc1OC(=O)N1CCOCC1`, the figure is inactive: 109%; as for `O=C(O)c1ccc(CN2C(=O)SC(Nc3ccccc3C(=O)O)C2=O)cc1` (configuration not stated), inactive: 94.2%; as for `CC1CCc2c(sc3nc(SCC(=O)c4cccs4)[nH]c(=O)c23)C1` (configuration not stated), inactive: 86.7%.
As for `CCOC(=O)C1CCN(C(=O)C2CCN(c3nccc4c(C)nn(CC)c34)CC2)CC1`, the figure is inactive: 104%; as for `COc1ccc(Br)cc1CNC(=O)COc1nc(C)nc2oc(C)c(C)c12`, inactive: 102%; as for `O=C(Nc1ccc(S(=O)(=O)Nc2cncs2)cc1)c1ccc(-c2cccc(C(F)(F)F)c2)o1`, inactive: 104%.
Take `CCOc1ccc(NC(=O)CSc2nncc(=O)[nH]2)cc1`: the intracellular bacterial bioluminescence is inactive: 13.4%.
The result for `N#Cc1ccccc1NC(=O)C(=O)NCc1ccccc1Cl` reads inactive: 111%; that for `O=C(CCn1c(=S)oc2ccccc21)Nc1ccc(O)c(-c2nc3ccccc3o2)c1`, inactive: 87.6%.
`COc1ccccc1CCNC(=O)CSc1nc(=O)n(Cc2ccco2)c2c1CCC2`: the intracellular bacterial bioluminescence is inactive: 106%.
As for `CN(C(=O)CSc1nc(=O)n2ccccc2n1)c1ccccc1`, the figure is inactive: 116%.
As for `CN1C(=O)c2cccc(NC(=O)c3sc4ccccc4c3Cl)c2C1=O`, the figure is inactive: 149%; as for `O=C(CSC1=NS(=O)(=O)c2ccccc2N1)Nc1ccc(Br)cc1`, inactive: 91.9%.
The result for `O=C(CCS(=O)(=O)c1ccccc1)Nc1cccc2c1C(=O)NC2=O` reads inactive: 111%; that for `CCn1cc(C(=O)N2CCc3ccccc3C2)c(=O)c2ccc(C)nc21`, inactive: 92.3%; that for `Cc1oc2ncnc(OCC(=O)Nc3ccc(S(N)(=O)=O)cc3)c2c1C`, inactive: 54.9%.
With `N#C/C(=C\c1ccc(-c2cccc(Cl)c2)o1)c1nc2ccccc2c(=O)[nH]1`, the intracellular bacterial bioluminescence was inactive: 102%.
As for `COc1ccc(NC(=S)N2CCC(NC(=O)c3ccccc3)CC2)c(OC)c1`, the figure is inactive: 116%; as for `CCN(C(=O)CSc1nccnc1N1CCN(c2ccccc2)CC1)c1ccccc1`, inactive: 35.5%.
The result for `CC(=O)c1cccc(N/C=C(\C#N)c2nc(-c3ccc(F)cc3)cs2)c1` reads inactive: 122%; that for `Cc1nc(-c2csc(S(=O)(=O)Nc3ccc(C)c(Cl)c3)c2)no1`, inactive: 67.2%.
As for `Cc1cccc(N2CCN(S(=O)(=O)c3cc(-c4nc(C)cs4)cs3)CC2C)c1` (configuration not stated), the figure is inactive: 81%; as for `COc1ccc(-n2ccn3c(CCC(=O)NCC4CCCO4)nnc3c2=O)cc1` (configuration not stated), inactive: 109%.
For the compound `Cc1ccccc1-c1nnc2ccc(N3CCC(C(=O)NCCN(C)C)CC3)nn12`, the intracellular bacterial bioluminescence was inactive: 112%.
As for `CN1Cc2ccccc2CC1C(=O)N1CCC2(CC1)NC(=O)c1ccccc1O2` (configuration not stated), the figure is inactive: 83.8%; as for `COCCCn1c(SCC(=O)Nc2ccccc2C(=O)OC)nc2c(sc3ccccc32)c1=O`, inactive: 98.4%; as for `Cc1oc(-c2ccno2)cc1S(=O)(=O)NC(C)CCc1ccccc1` (configuration not stated), inactive: 89.8%.
On to `O=C(Nc1cccc(-c2nnc(-c3ccccc3)o2)c1)Nc1ccc2c(c1)OCCO2`, for which the intracellular bacterial bioluminescence was inactive: 92.7%.
As for `CCc1ccc2oc(C(=O)Nc3nc(-c4ccc(C)s4)ns3)cc(=O)c2c1`, the figure is inactive: 102%; as for `O=C(COc1ncnc2ccccc12)NC(c1ccccc1)c1cccnc1` (configuration not stated), inactive: 101%; as for `CCOc1ccc(NC(=O)c2cnc3c(c(C)nn3-c3ccccc3)c2Cl)cc1`, inactive: 82.9%.
As for `O=C(Nc1cc(Cl)cc(Cl)c1)c1ccc(N2C(=O)CCC2=O)cc1`, the figure is inactive: 62.4%.
For `O=C(NCCn1cccn1)c1ncoc1-c1ccc(F)cc1`, the intracellular bacterial bioluminescence is inactive: 130%.
Turning to `Cc1ccccc1C(=O)/C(C#N)=C1\Nc2ccccc2N1C`, the intracellular bacterial bioluminescence was inactive: 96.6%.
As to `CCc1nc(-n2nc(C)cc2N)c2c3c(sc2n1)CCC3`, the intracellular bacterial bioluminescence was inactive: 111%.
Take `CCOC(=O)CCn1c(=O)c2c(nc3n(CCCOC)c(C)c(C)n23)n(C)c1=O`: the intracellular bacterial bioluminescence is inactive: 98.1%.
The result for `Cc1sc2nc(C)n3c(=O)n(CC(=O)N4CCOCC4)nc3c2c1C` reads inactive: 110%; that for `COc1ccc(-c2nnc3c(C(=O)N4CCC(O)(c5ccc(Cl)cc5)CC4)cccn23)cc1`, inactive: 113%; that for `Cn1cnc2c(C(=O)O)nn(-c3ccccc3)c2c1=O`, inactive: 111%.
The result for `Cc1ccc(C)c(NC(=O)c2cccnc2-c2ccsc2)c1` reads inactive: 82.6%.
The result for `O=Cc1ccc(OC(=O)CC2SC(=O)NC2=O)cc1` (configuration not stated) reads inactive: 47%; that for `O=C(Nc1ccc2oc(-c3ccccc3F)cc(=O)c2c1)c1ccncc1`, inactive: 91.4%.
For the compound `Cn1c(SCC(=O)NCCCN2CCOCC2)nc2ccccc2c1=O`, the intracellular bacterial bioluminescence is inactive: 107%.
With `COC(=O)c1c(NC(=O)CC2NCCNC2=O)sc2c1CCCC2` (configuration not stated), the intracellular bacterial bioluminescence is inactive: 85.6%.
As to `CCN1CCN(c2nc3ncn(CC(=O)Nc4ccc5c(c4)OCO5)c(=O)c3s2)CC1`, the intracellular bacterial bioluminescence was inactive: 83.5%.
As for `CCS(=O)(=O)c1ccc(CC(=O)Nc2nc3ccc(F)cc3s2)cc1`, the figure is inactive: 30.7%; as for `O=c1[nH]c(-c2ccccc2)nc2sc(-c3ccccc3)cc12`, inactive: 119%.
As for `Cc1c(NC(=O)c2cccc(Cl)c2)c(-n2cnnc2)nn1C`, the figure is inactive: 100%.
As for `CCOc1ccc(NC(=O)COc2cccc3c2CCN(Cc2ccc(F)cc2)C3=O)cc1`, the figure is inactive: 26.4%; as for `COc1cccc2c(=O)n(CC(=O)Nc3ccccc3C(F)(F)F)ccc12`, inactive: 92.1%.
On to `CCOC(=O)CNS(=O)(=O)c1ccc2c3c(cccc13)C(=O)N2CC`, for which the intracellular bacterial bioluminescence is active: 155%.
As for `CSc1nc2ccc3nc(NC(=O)c4ccccc4C)sc3c2s1`, the figure is inactive: 79.7%.
As for `Cc1oc(-c2ccno2)cc1S(=O)(=O)N1CCCCC1C` (configuration not stated), the figure is inactive: 91.6%; as for `Cc1cn2c(nc3c2c(=O)n(Cc2c(F)cccc2Cl)c(=O)n3C)o1`, inactive: 123%.

The values are drawn from the supplement of paper PMC12578635.
